# According to paper PMC9647545:
# By UniProt entry, the sequences of proteins in these tests, tags left out. Where a name states a change or a piece, a line headed by the entry shows the natural chain unless it says otherwise.
# UniProt P20489: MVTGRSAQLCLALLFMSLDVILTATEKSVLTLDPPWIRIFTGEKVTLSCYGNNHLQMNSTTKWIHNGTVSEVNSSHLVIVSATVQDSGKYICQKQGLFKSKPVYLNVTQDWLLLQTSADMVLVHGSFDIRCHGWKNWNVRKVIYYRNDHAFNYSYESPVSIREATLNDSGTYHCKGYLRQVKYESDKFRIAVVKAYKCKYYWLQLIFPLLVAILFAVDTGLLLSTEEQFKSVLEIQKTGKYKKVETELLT
# UniProt P20490: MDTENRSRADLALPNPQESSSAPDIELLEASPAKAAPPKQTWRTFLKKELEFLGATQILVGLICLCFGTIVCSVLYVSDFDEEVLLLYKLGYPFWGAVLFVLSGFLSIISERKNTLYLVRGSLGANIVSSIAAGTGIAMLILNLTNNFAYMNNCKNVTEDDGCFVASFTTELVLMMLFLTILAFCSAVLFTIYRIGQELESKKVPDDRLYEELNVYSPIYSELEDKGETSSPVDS
# UniProt P20491: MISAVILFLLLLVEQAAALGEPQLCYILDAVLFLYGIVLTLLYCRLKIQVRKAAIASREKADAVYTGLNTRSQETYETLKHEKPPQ
# These are yes or no findings as the source states them, for the method shown. In cells and extracts the contact can be indirect.
# B1: Insulin-regulated aminopeptidase (protein, UniProt Q8C129 1-1025)
# chain: MESFTNDRLQLPRNMIENSMFEEEPDVVDLAKEPCLHPLEPDEVEYEPRGSRLLVRGLGEHEMDEDEEDYESSAKLLGMSFMNRSSGLRNSAAGYRQSPDGTCSLPSARTLVICVFVIVVAVSVIMVIYLLPRCTFTKEGCHKTNQSAELIQPVATNGKVFPWAQIRLPTAIIPLCYELSLHPNLTSMTFRGSVTISLQALQDTRDIILHSTGHNISRVTFMSAVSSQEKQVEILEYPYHEQIAVVAPEPLLTGHNYTLKIEYSANISNSYYGFYGITYTDKSNEKKYFAATQFEPLAARSAFPCFDEPAFKATFIIKITRNEHHTALSNMPKKSSVPAEEGLIQDEFSESVKMSTYLVAFIVGEMRNLSQDVNGTLVSVYAVPEKIGQVHHALDTTIKLLEFYQTYFEIQYPLKKLDLVAIPDFEAGAMENWGLLTFREETLLYDNATSSVADRKLVTKIIAHELAHQWFGNLVTMQWWNDLWLNEGFATFMEYFSVEKIFKELNSYEDFLDARFKTMRKDSLNSSHPISSSVQSSEQIEEMFDSLSYFKGASLLLMLKSYLSEDVFRHAVILYLHNHSYAAIQSDDLWDSFNEVTDKTLDVKKMMKTWTLQKGFPLVTVQRKGTELLLQQERFFLRMQPESQPSDTSHLWHIPISYVTDGRNYSEYRSVSLLDKKSDVINLTEQVQWVKVNSNMTGYYIVHYAHDDWTALINQLKRNPYVLSDKDRANLINNIFELAGLGKVPLRMAFDLIDYLKNETHTAPITEALFQTNLIYNLLEKLGHMDLSSRLVARVHKLLQNQIQQQTWTDEGTPSMRELRSALLEFACAHSLENCTTMATNLFDSWMASNGTQSLPTDVMVTVFKVGARTEKGWLFLFSMYSSMGSEAEKNKILEALASSEDVHKLYWLMKSSLDGDIIRTQKLSLIIRTVGRHFPGHLLAWDFVKENWNKLVHKFHLGSYTIQSIVAGSTHLFSTKTHLSEVQAFFENQSEATLKLRCVQEALEVIQLNIQWMVRNLKTLSQWL
# Target: FcεRI (mouse (endogenous in BMMCs)) (UniProt P20489+P20490+P20491)
# Experiment: co-IP; co-immunoprecipitation experiments of IRAP and FcεRI told only in the discussion; no data shown, no details
binder,measurement,value
B1,binding,no binding
